Measured values from patent US20230332232A1, “COMPOSITIONS AND METHODS FOR DIAGNOSING AND TREATING A DYSTONIA” (Duke University, priority 2020, published 2023).

Experiments:
[1] = test system: hiPSC-derived neural progenitor cells (NPCs) EVs; assay: Parallel reaction monitoring (PRM) targeted proteomics of EVs from hiPSC-derived neural progenitor cells; format: cell-based, human
[2] = test system: MEF EVs; assay: Original untargeted proteomics MEF discovery dataset (average peptide intensity); format: cell-based, mouse; settings: peptide of the PRM panel; original MEF EV proteomics dataset
[3] = test system: MEF EVs; assay: Untargeted discovery proteomics of MEF EVs (MEF Discovery Dataset), average peptide intensity; format: cell-based, mouse; settings: peptide of the PRM panel in the original proteomics dataset
[4] = EVs from human iPSC-derived NPC pool, present/absent

Sequence | Detected in NPC Pool ([1]; EVs of hiPSC-derived NPC pool) | Avg. Intensity in MEF Discovery Dataset [2] | Detected in NPC Pool [1, 4] | Avg. Intensity in MEF Discovery Dataset [3]
FIATLQYIVGR | absent | 4.28E−05 | – | –
AFSYYGPLR | absent | 5.70E−06 | – | –
ILPEQGLMLTGSADK | absent | 1.55E−05 | – | –
LPVPASAPIPFFIR | present | 8.71E−05 | – | –
VAAALPGMESTQDR | present | 2.88E−05 | – | –
ANPALYVLR | absent | 9.40E−06 | – | –
LALASLGYEK | present | 6.77E−06 | – | –
AILGSVER | present | 1.29E−06 | – | –
NPVTIFSLATNEMWR | absent | 3.90E−04 | – | –
AGNLGGGVVTIER | present | 3.26E−06 | – | –
VNTPITTVYR | present | 1.24E−06 | – | –
NVFLLGFIPAK | – | – | absent | –
SLLVTELGSSR | present | 3.47E−05 | – | –
VELSTGMPR | absent | 1.87E−06 | – | –
VQAVVAVAR | absent | 7.64E−05 | – | –
DLSSVQTLLTK | absent | 6.03E−05 | – | –
IGDVVGSSGANQQTSGK | absent | 9.56E−04 | – | –
IGDFGMITR | present | 2.87E−05 | – | –

Sequence | Detected in NPC Pool ([1]; EVs of hiPSC-derived NPC pool) | Avg. Intensity in MEF Discovery Dataset [2] | Detected in NPC Pool [1, 4] | Avg. Intensity in MEF Discovery Dataset [3]
TNNSNQNFFK | – | – | absent | 9.13E−05
SGDSEVYQMGDVSQK | absent | 1.01E−05 | – | –
NIQVSHQEFSK | present | 6.56E−06 | – | –
VLDNAIETEK | absent | 7.91E−05 | – | –
SPAITATLEGK | – | – | absent | 2.78E−05
LTSLLEETLNK | absent | 7.77E−04 | – | –
YGPLADVSIVYDAQSR | absent | 5.45E−05 | – | –
GDSLAYGLR | absent | 7.58E−05 | – | –
LELFLPEEYPMAAPK | – | – | absent | 2.00E−05
YQTIEENIK | absent | 2.60E−05 | – | –
IDLTLLNR | absent | 1.15E−06 | – | –
DGTISEDTIR | present | 1.06E−06 | – | –
NYLSQPSNPSR | absent | 1.26E−05 | – | –
EAKPDELMDSK | – | – | absent | 3.24E−05
ELPELLQR | present | 5.68E−06 | – | –
ASLISANSDK | present | 9.80E−05 | – | –
LDENSAFLQFNWK | absent | 6.23E−05 | – | –
CPLPGTAAFK | present | 1.17E−06 | – | –
